Measured values taken from paper doi:10.1101/2021.08.04.455032.
These are yes or no findings as the source states them, for the method shown. In cells and extracts the contact can be indirect. These calls come from enrichment with a bait or labelling near it, and not all partners need be listed. For some assays here: A no says only that the protein was not detected with the bait.

Protein sequences, listed by entry. Tags and fused reporters are not part of them. Lines headed by an entry give the natural chain unless they say otherwise; changes in a name come on top.
UniProt Q8IYS0: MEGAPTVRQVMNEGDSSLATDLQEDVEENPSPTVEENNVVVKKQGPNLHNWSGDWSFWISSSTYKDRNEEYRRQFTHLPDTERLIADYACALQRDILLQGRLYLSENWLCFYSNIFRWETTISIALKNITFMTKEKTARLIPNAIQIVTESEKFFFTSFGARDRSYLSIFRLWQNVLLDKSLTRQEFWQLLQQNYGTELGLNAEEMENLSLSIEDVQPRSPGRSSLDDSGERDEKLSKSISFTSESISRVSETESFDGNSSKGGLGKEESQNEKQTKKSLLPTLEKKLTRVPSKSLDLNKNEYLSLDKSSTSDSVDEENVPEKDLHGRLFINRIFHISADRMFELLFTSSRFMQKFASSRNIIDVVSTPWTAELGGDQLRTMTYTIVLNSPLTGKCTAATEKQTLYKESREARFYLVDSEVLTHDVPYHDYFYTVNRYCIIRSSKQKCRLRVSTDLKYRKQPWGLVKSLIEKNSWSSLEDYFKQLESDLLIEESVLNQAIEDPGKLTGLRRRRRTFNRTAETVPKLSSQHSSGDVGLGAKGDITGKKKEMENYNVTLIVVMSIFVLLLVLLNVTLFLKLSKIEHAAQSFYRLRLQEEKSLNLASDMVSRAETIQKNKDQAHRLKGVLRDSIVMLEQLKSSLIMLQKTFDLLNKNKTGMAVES
UniProt P21796: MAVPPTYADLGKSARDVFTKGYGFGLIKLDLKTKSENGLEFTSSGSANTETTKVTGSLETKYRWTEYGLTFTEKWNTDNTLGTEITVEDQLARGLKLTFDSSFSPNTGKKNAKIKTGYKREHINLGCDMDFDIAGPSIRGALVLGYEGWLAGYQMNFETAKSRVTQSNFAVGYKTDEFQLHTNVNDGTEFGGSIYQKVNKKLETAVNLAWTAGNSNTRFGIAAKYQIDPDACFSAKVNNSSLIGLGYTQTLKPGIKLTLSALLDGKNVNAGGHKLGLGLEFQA

Assays:
[1] = target: GRAMD1C-EGFP (UniProt Q8IYS0); assay: affinity purification with mass spectrometry
[2] = target: GRAMD1C(ΔGRAM)-EGFP (UniProt Q8IYS0); assay: affinity purification with mass spectrometry

With VDAC1 (from UniProt P21796 1-283) the binding [1] was “binds” and the binding [2] was “no binding”.
